In PubChem BioAssay AID328 (DTP/NCI, 2004) one finds T/C data, which are given here for 4 compounds.

The test system of the test is BDF1 mice, P388 leukemia ip, median survival T/C. Nature of the test: NCI In Vivo Anticancer Drug Screen. Data for tumor model P388 Leukemia (intraperitoneal) in B6D2F1 (BDF1) mice. The settings on record: T/C endpoint: median survival time, higher T/C = longer survival. As to the method:
The antitumor activity of compounds was measured in mice bearing transplantable tumors. Survival or tumor size were measured and the results are expressed as the measurement made in the treated group (T) divided by the measurement made in the vehicle treated control group (C). The tumor model used in this assay is P388 Leukemia (intraperitoneal) in B6D2F1 (BDF1) mice

Molecules are shown by their SMILES. The list is a part of this screen's results and no random one: its compounds were picked by chemical class. Other doses and runs of a compound may be missing. T/C: endpoint of the treated group in % of that of the vehicle group. For survival time, this PubChem deposit counts one and a half times the control or more as active, and values a quarter to a half above the control carry no call in these data; other NCI protocols may use other cut-offs. Some T/C values are marked as having no survivor count here; that says nothing about deaths at the dose. Schedule codes are those of the source, read here as Q, the interval in days (D) or hours (H), X, the number of doses. Some entries were tested several times; the results are listed from low to high.

Consider `Cc1cc2nc(CN(CCCl)CCCl)[nH]c2cc1C`, for which the T/C (dose: 16.5 mg/kg/injection, schedule: Q04DX003 (ip), vehicle: saline with Tween-80) was 179 % of control [survivor count not shown]; the T/C (dose: 25.0 mg/kg/injection, schedule: Q04DX003 (ip), vehicle: saline with Tween-80) is 229 % of control [survivor count not shown]; the T/C (dose: 37.5 mg/kg/injection, schedule: Q04DX003 (ip), vehicle: saline with Tween-80) is 162 % of control [survivor count not shown].

In the case of `ClCCCCC(CCl)NCCCl` (configuration not stated), the T/C is 87 % of control [survivor count not shown] (dose: 1.3 mg/kg/injection, schedule: Q01DX009 (ip), vehicle: saline); 100 % of control [survivor count not shown] (dose: 1.9 mg/kg/injection, schedule: Q01DX009 (ip), vehicle: saline); 131 % of control [survivor count not shown] (dose: 3.0 mg/kg/injection, schedule: Q01DX009 (ip), vehicle: Klucel (hydroxypropylcellulose) (HPC)); 122 % of control [survivor count not shown] (dose: 4.6 mg/kg/injection, schedule: Q01DX009 (ip), vehicle: Klucel (hydroxypropylcellulose) (HPC)); 159 % of control [survivor count not shown] (dose: 16.0 mg/kg/injection, schedule: Q01DX009 (ip), vehicle: saline); 142 [survivor count not shown] and 195 % of control [survivor count not shown] (dose: 25.0 mg/kg/injection, schedule: Q01DX009 (ip), vehicle: saline). The T/C reads like this: (dose: 35.0 mg/kg/injection, schedule: Q01DX009 (ip), vehicle: saline) 122 % of control [survivor count not shown]; (dose: 50.0 mg/kg/injection, schedule: Q01DX009 (ip), vehicle: saline) 95 % of control [survivor count not shown]; (dose: 100.0 mg/kg/injection, schedule: Q04DX003 (ip), vehicle: saline) 90 % of control [survivor count not shown].

Take `N#CC(C#N)=Cc1ccccc1`: the T/C runs as follows: (dose: 6.25 mg/kg/injection, schedule: Q01DX009 (ip), vehicle: Klucel (hydroxypropylcellulose) (HPC)) 90 % of control [survivor count not shown]; (dose: 12.5 mg/kg/injection, schedule: Q01DX009 (ip), vehicle: Klucel (hydroxypropylcellulose) (HPC)) 100 % of control [survivor count not shown]; (dose: 25.0 mg/kg/injection, schedule: Q01DX009 (ip), vehicle: Klucel (hydroxypropylcellulose) (HPC)) 118 % of control [survivor count not shown]; (dose: 100.0 mg/kg/injection, schedule: Q04DX003 (ip), vehicle: Klucel (hydroxypropylcellulose) (HPC)) 95 % of control [survivor count not shown]; (dose: 200.0 mg/kg/injection, schedule: Q04DX003 (ip), vehicle: Klucel (hydroxypropylcellulose) (HPC)) 91 % of control [survivor count not shown].

Turning to `Cc1ccc(C)c(CN(CCCl)CCCl)c1`, the T/C by setting is: (dose: 0.88 mg/kg/injection, schedule: Q01DX009 (ip), vehicle: saline) 124 % of control [survivor count not shown]; (dose: 1.33 mg/kg/injection, schedule: Q01DX009 (ip), vehicle: saline) 133 % of control [survivor count not shown]; (dose: 2.0 mg/kg/injection, schedule: Q01DX009 (ip), vehicle: saline) 156 % of control [survivor count not shown]; (dose: 2.6 mg/kg/injection, schedule: Q04DX003 (ip), vehicle: saline) 122 % of control [survivor count not shown]; (dose: 2.66 mg/kg/injection, schedule: Q01DX009 (ip), vehicle: saline) 171 % of control [survivor count not shown]; (dose: 3.0 mg/kg/injection, schedule: Q01DX009 (ip), vehicle: saline) 168 % of control [survivor count not shown]. Moreover, the T/C is 161 % of control [survivor count not shown] (dose: 4.0 mg/kg/injection, schedule: Q01DX009 (ip), vehicle: saline); 127 % of control [survivor count not shown] (dose: 4.0 mg/kg/injection, schedule: Q04DX003 (ip), vehicle: saline); 178 % of control [survivor count not shown] (dose: 6.0 mg/kg/injection, schedule: Q01DX009 (ip), vehicle: saline); 131 % of control [survivor count not shown] (dose: 6.0 mg/kg/injection, schedule: Q04DX003 (ip), vehicle: saline); 136 % of control [survivor count not shown] (dose: 6.25 mg/kg/injection, schedule: Q04DX003 (ip), vehicle: saline); 196 % of control [survivor count not shown] (dose: 9.0 mg/kg/injection, schedule: Q01DX009 (ip), vehicle: saline). Besides, the T/C reads like this: (dose: 9.0 mg/kg/injection, schedule: Q04DX003 (ip), vehicle: saline) 131 % of control [survivor count not shown]; (dose: 12.5 mg/kg/injection, schedule: Q04DX003 (ip), vehicle: saline) 154 % of control [survivor count not shown]; (dose: 25.0 mg/kg/injection, schedule: Q04DX003 (ip), vehicle: saline) 163 % of control [survivor count not shown].
